{"source": "patent US20250127863A1", "about": "“ANTIMICROBIAL PEPTIDE FOR ONYCHOMYCOSIS” (CBMR SCIENTIFIC NANOSCIENCE B.V., priority 2019, published 2025)", "origin": "cited, not measured here", "system": "onychomycosis", "details": "systemic use; cited from earlier work", "note": "At least one structure is not confirmed: it was looked up by name or label, or the drawing left a doubt.", "data": [{"smiles": "CCC(C)n1ncn(-c2ccc(N3CCN(c4ccc(OCC5COC(Cn6cncn6)(c6ccc(Cl)cc6Cl)O5)cc4)CC3)cc2)c1=O", "note": "(stereo not shown) [itraconazole]", "values": [{"measurement": "(mycological) cure", "result": "up to 55%"}]}]}
